In PubChem BioAssay AID540303 (National Center for Advancing Translational Sciences (NCATS), 2011):
Out of some 330,000 compounds screened, about 1,000 (0.3%) were called active. This list was built around the results that the source calls inconclusive (neither active nor inactive); the mix of calls is not that of the screen. The call rests on the fitted dose curve; in most records, active means well fitted inhibition curve with a large enough effect; inconclusive means small, poorly fitted or top-dose-only effect; inactive means no such curve, though single readings can be large or run the other way; tested in mouse RAW 264.7 cells. Potencies of inconclusive entries are doubtful fits and often do not repeat.

Assay: qHTS for Inhibitors of Cell Surface uPA Generation; further: nearly all actives have a fitted effect of over 55% in size
Details: cell surface uPA generation assay; series mostly up to 38.3 µM
Method in brief: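 ATP-Lite luminescence in RAW 264.7 cells after 24 h of exposure to compound, tested up to 38.3 uM final in 1:5 steps. Raised ATP reflects inhibition of uPA-dependent LF delivery to the cytoplasm.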
Potency means the concentration at half of the fitted maximal effect.

SMILES | Potency
Cc1cccc([C@H](NC(=O)OC(C)(C)C)C(=O)OC(C)(C)C)c1 | inconclusive: 3.98 µM [inhibitor, partial curve, poor fit]
COCc1cc(=O)n2[nH]c(-c3ccco3)cc2n1 | inactive
CCN(CC)CCNC(=S)Nc1ccc2nc(N3CCCC3)cc(C)c2c1 | inconclusive: 3.55 µM [inhibitor, partial curve, poor fit]
COc1ccc(N(C)S(=O)(=O)c2cccc(C(=O)OC(C)C(=O)NC3CCCCC3C)c2)cc1 (centres undefined) | inconclusive: 12.6 µM [inhibitor, partial curve]
C=CC(=O)Nc1ccc(Nc2ccnc(Nc3ccc(N4CCN(C)CC4)cc3)n2)cc1 | inconclusive: 11.2 µM [inhibitor, single point]
COCCn1c(C)cc(C2=NNC(=Nc3ccc(OC)cc3)SC2)c1C | inconclusive: 0.282 µM [inhibitor, full curve, poor fit]
COc1cc(C)c(Cl)c(C)c1S(=O)(=O)NC1CC(C)(C)NC(C)(C)C1 | inconclusive: 12.6 µM [inhibitor, single point]
CC1(C)CC(=O)C(C(O)c2ccccc2)C(C)(C)N1 (centres undefined) | inactive
CC(/C=N/NC(=O)c1cc(C2CC2)[nH]n1)=C\c1ccccc1 | inconclusive: 12.6 µM [inhibitor, single point]
C[C@]12c3[nH]c4cc(-c5ccco5)ccc4c3CCN1C(=O)[C@@H](CC(=O)NCc1ccco1)C[C@@H]2C(=O)N1CCCCC1 | inconclusive: 22.4 µM [inhibitor, single point]
CN(C)c1ccc(-n2cccc2)cc1 | inactive
Cc1cccc(N(CC(=O)NC(C)C)C(=O)CCC(=O)Nc2nccs2)c1 | inconclusive: 0.794 µM [inhibitor, partial curve, poor fit]
Cc1ccc(Cl)cc1N1CCN(C(=O)CCS(=O)(=O)c2cccc3nonc23)CC1 | inactive
O=C(CNC(=O)c1ccccc1Br)NCC(c1ccco1)N1CCCCC1 (centres undefined) | inconclusive: 2.24 µM [inhibitor, full curve, poor fit]
CCOc1cccc2cc(C(=O)NCc3ccc(F)cc3)c(=N)oc12 | inconclusive: 5.62 µM [inhibitor, single point]
O=C(NCCO)c1ccc(CSc2nc3ccccc3[nH]2)cc1 | inactive
CCOc1cc(C)c(S(=O)(=O)NC2CCCCC2)cc1C | inactive
Cc1ccc(C(=O)/C=C/Nc2ccccc2C(N)=O)o1 | inconclusive: 10 µM [inhibitor, single point]
Nc1ccc(C#Cc2ccc3oc4ccccc4c(=O)c3c2)cc1 | inconclusive: 11.2 µM [inhibitor, single point]
CC1=NN(C(=O)Cc2ccc([N+](=O)[O-])cc2)C(O)(C(F)(F)C(F)(F)F)C1 (centres undefined) | inactive
O=C(Nc1nc(-c2cccs2)c(C(=O)C(F)(F)F)s1)c1ccco1 | inconclusive: 2.82 µM [inhibitor, partial curve, poor fit]
COc1ccc(C(=O)NCCNc2ccccc2[N+](=O)[O-])cc1 | inconclusive: 5.01 µM [inhibitor, partial curve, poor fit]
COc1ccc(/C=C/c2cc(O)cc(OC3OC(CO)C(O)C(O)C3O)c2)cc1 (centres undefined) | inconclusive: 6.31 µM [inhibitor, partial curve, poor fit]

SMILES | Potency
COc1ccc(Cl)cc1NC(=O)CN(C)C(=O)c1ccc(N2CCCCCC2)c([N+](=O)[O-])c1 | inconclusive: 12.6 µM [inhibitor, single point]
COc1ccc(CC(=O)Nc2nc(-c3ccc(OC)c(OC)c3)cs2)cc1OC | inactive
Cc1cc(C)n(-c2ccc(C(=O)N3CCN(S(=O)(=O)c4cccc(Br)c4)CC3)cc2)n1 | inconclusive: 10 µM [inhibitor, partial curve, poor fit]
COc1ccc(-c2csc(N(CCc3ccccc3)C(=O)COc3ccccc3)n2)cc1 | inactive
CC(C)(C)c1ccc(C(=O)Nc2sc3c(c2C(=O)O)CCC3)cc1 | inconclusive: 4.47 µM [inhibitor, partial curve, poor fit]
COc1ccccc1C(=O)Nc1ccc2c(c1)OCCO2 | inactive
CCCC[C@@H]1CNC(=S)N1CCc1cccc2ccccc12 | inactive
CC(C)(C)c1[nH]nc2c1C(c1ccsc1)C(C#N)=C(N)O2 (centres undefined) | inconclusive: 7.08 µM [inhibitor, partial curve, poor fit]
CC(C)=CCc1c(O)cc(O)c2c(=O)c3c(CC=C(C)C)c(O)ccc3oc12 | inconclusive: 22.4 µM [inhibitor, single point]
Cc1ccc(C(=O)Nc2cccc(NC(=O)c3cccs3)c2)c(C)c1 | active: 12.6 µM
CN1CCN(c2nc(-c3ccc(C(C)(C)C)cc3)nc3ccccc23)CC1 | inconclusive: 3.55 µM [inhibitor, single point]
CC(=O)N1CCOc2ccc(S(=O)(=O)NCC3CCC(C(=O)Nc4ncccc4C)CC3)cc21 (centres undefined) | inactive
Cc1ccc2nc(C)cc(N/N=C/c3ccccc3O)c2c1 | inconclusive: 2 µM [inhibitor, full curve]
Cc1ccc(N(C(=O)c2csnn2)C(C(=O)NC2CCCCC2)c2cccnc2)cc1 (centres undefined) | inactive
NC(=S)NNc1c(F)c(F)c(F)c(F)c1F | inactive
N#Cc1ccc(C23CC4(C2)[C@H](CN(P(=O)(c2ccccc2)c2ccccc2)[C@@H]4c2ccccc2)C3c2ccc(Cl)nc2)cc1 (some centres undefined) | inconclusive: 7.94 µM [inhibitor, single point]
COC(=O)c1cc(=O)n(CCc2ccc(OC)c(OC)c2)c(=Nc2ccc(F)c(Cl)c2)s1 | active: 6.31 µM
COC(=O)NC1c2ccccc2Oc2ccc(C)cc21 (centres undefined) | inconclusive: 0.0224 µM [inhibitor, full curve, poor fit]
CCOc1ccc(S(=O)(=O)n2c(C)nc3ccccc32)cc1 | active: 12.6 µM
Cc1ccc2nc(C)c(C(=O)NN=C3CCCCCC3)n2c1 | active: 4.47 µM
O=C(NC1CCCc2c1cnn2-c1ccccc1F)c1ccccn1 (centres undefined) | inconclusive: 7.94 µM [inhibitor, single point]
CCc1ccc(C(=O)COC(=O)C2CCN(c3ccc(C(F)(F)F)cn3)CC2)cc1 | inactive
O=C(NC1CCSc2ccccc21)c1ccc(F)c(S(=O)(=O)N2CCOCC2)c1 (centres undefined) | inactive

SMILES | Potency
Cc1ccn2c(C(=O)N/N=C\c3ccccc3[N+](=O)[O-])c(C)nc2c1 | inactive
COc1ccc(C)cc1NC(=O)c1ccccc1NS(=O)(=O)c1ccc(Cl)s1 | inconclusive: 12.6 µM [inhibitor, single point]
CNC(=O)c1[nH]cnc1C(=O)Nc1ccc(C)cc1 | inconclusive: 8.91 µM [inhibitor, single point]
O=C(N/N=C/C(Br)=C/c1ccccc1)c1ccncc1 | inconclusive: 7.08 µM [inhibitor, partial curve, poor fit]
O=C(N/N=C/c1cccs1)c1cc(-c2cccc3ccccc23)n[nH]1 | inconclusive: 8.91 µM [inhibitor, partial curve, poor fit]
O=C(c1n[nH]c2ccccc12)N1CCN(S(=O)(=O)c2ccc(Cl)cc2)CC1 | inactive
CC(C)C1NC2(C(=O)c3ccccc3C2=O)C2C(=O)N(c3ccc(F)cc3)C(=O)C12 (centres undefined) | inactive
CCN1CCN(C(=O)c2cc3c(s2)-c2c(C)cccc2OC3)CC1 | inconclusive: 7.08 µM [inhibitor, partial curve, poor fit]
CC(C)n1nc(C(=O)Oc2ccc(Cl)cc2)c2ccccc2c1=O | inactive
CCOC(=O)c1c(C)n(C)c2ccc(OCC(O)CN3CCC(C)CC3)cc12 (centres undefined) | inconclusive: 31.6 µM [inhibitor, partial curve, poor fit]
CCOc1ccc(C(=O)Nc2cccc3ncccc23)cc1Br | inconclusive: 8.91 µM [inhibitor, partial curve]
O=C(CCS(=O)(=O)c1ccccc1)N(CCCN1CCOCC1)c1nc2ccccc2s1 | inconclusive: 12.6 µM [inhibitor, partial curve]
CCC1=C(OC(=O)N(CC)CC)N2C(=O)OC(=NCCc3c[nH]c4ccccc34)[C@]2(Cc2ccccc2)[C@H]2C1=CC[C@H]1C(=O)N(CC(=O)OC)C(=O)[C@H]12 | inconclusive: 28.2 µM [inhibitor, single point]
COc1ccc(C2Nc3ccccc3C(=O)N2Cc2ccccc2)cc1 (centres undefined) | inconclusive: 0.0158 µM [inhibitor, full curve, poor fit]
CCN(CC)S(=O)(=O)c1cnccc1N1CCN(c2cccc(Cl)c2)CC1 | inactive
Cc1cccc(N2N=C(C(=O)Nc3ccc(Cl)c(S(=O)(=O)N4CCOCC4)c3)CCC2=O)c1 | inconclusive: 12.6 µM [inhibitor, single point]
NC[C@H](O)c1ccc(O)c(O)c1 | inconclusive: 8.91 µM [inhibitor, partial curve, poor fit]
CCc1c(C)nc2cc(-c3ccccc3)[nH]n2c1=O | inactive
O=C(/C=C/c1ccc(F)cc1)NC(=S)N1CCOCC1 | inactive
COc1ccc(S(=O)(=O)N2CCCCC2)cc1NC(=O)CSc1ncnc2ccccc12 | inconclusive: 28.2 µM [inhibitor, single point]
COc1cc(/C=C/c2nc3ccccc3c(=O)[nH]2)cc(OC)c1OC | inconclusive: 2.24 µM [inhibitor, full curve, poor fit]
Cn1ncc(Cl)c1C(=O)N1CCN(c2ccc(F)cc2)CC1 | inactive
CCN(CC)S(=O)(=O)c1cccc(-c2nnc(SCc3ncc(-c4ccccc4)o3)n2C)c1 | inactive
